# Results are given in words; binding and its absence hold for the method and conditions named. In cells and extracts the contact can be indirect. Some results given as binding are weak or reduced against the parent protein; the word gives no strength. Sequences can lack the tags named with a protein.
# Amino acid sequences for entries named in this document (tags omitted).
# UniProt P19474: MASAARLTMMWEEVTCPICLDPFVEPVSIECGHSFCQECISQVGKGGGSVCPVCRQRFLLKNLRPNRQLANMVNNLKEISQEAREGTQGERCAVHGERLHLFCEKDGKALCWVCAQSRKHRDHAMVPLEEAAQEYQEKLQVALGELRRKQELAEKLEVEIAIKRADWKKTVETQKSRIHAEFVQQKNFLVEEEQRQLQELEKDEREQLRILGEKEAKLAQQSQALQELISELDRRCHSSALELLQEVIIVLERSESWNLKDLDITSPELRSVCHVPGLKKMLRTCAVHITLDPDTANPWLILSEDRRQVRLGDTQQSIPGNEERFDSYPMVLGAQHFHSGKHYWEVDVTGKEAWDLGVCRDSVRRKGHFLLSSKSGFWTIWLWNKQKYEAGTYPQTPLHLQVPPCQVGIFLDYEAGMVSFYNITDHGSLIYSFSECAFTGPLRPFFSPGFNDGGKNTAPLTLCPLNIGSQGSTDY
# Target: T1, HIS-EPHX1 (UniProt P07099)
# T1 sequence: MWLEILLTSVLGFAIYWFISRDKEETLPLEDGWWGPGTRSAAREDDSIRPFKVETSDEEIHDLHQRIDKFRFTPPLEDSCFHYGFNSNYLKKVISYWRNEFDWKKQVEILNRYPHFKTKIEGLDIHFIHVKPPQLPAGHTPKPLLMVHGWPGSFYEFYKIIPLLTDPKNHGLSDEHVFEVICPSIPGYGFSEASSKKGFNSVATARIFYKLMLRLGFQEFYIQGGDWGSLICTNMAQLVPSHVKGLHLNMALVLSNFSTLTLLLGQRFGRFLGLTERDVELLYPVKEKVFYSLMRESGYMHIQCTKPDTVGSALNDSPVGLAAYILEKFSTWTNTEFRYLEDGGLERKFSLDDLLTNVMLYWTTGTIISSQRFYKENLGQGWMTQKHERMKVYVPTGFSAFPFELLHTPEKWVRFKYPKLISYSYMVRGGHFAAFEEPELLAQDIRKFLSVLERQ
# Test: co-IP; BXPC3 and SW1990 cells overexpressing HIS-EPHX1, WT cells as negative control; immunoprecipitation with HIS-magnetic beads, overnight at 4 °C
substance,measurement,value
TRIM21 (endogenous) (from UniProt P19474 1-475),binding,binds

# Source: article PMC11848624
